Test results taken from patent EP0113998A2, “Composition and treatment for herpes simplex viral infections” (priority 1982, dated 1984).
For at least one compound, name, drawing or mass did not settle the structure.

Tested on: herpes simplex infections
Format: in vivo, Human
Details: description in words, patients of Example 2
Experimental: A clinical study was performed in a. classical double blind format with numbered vials containing either 1% sodium deoxycholic acid (DOC)in an aqueous solution of 30% ethanol and 5% neopurcellin (a mixture of inert medium chain fatty acids). The placebo was exactly the same, except that it lacked the sodium deoxycholic acid.

## C[C@H](CCC(=O)O)[C@H]1CC[C@H]2[C@@H]3CC[C@@H]4C[C@H](O)CC[C@]4(C)[C@H]3C[C@H](O)[C@]12C [DOC, sodium deoxycholic acid]
  Efficacy by site of infection (genital / oral herpes): approx. 50% genital, 50% oral. Efficacy seen with genital herpes in-fections and also, al-though less dramatical-ly, with oral herpes.
